From publication doi:10.1101/720482 come the findings set out here.

Chains of the proteins cited; added tags and fusions are not shown. Residues count along the entry.
UniProt Q9FL28, residues 24-1173: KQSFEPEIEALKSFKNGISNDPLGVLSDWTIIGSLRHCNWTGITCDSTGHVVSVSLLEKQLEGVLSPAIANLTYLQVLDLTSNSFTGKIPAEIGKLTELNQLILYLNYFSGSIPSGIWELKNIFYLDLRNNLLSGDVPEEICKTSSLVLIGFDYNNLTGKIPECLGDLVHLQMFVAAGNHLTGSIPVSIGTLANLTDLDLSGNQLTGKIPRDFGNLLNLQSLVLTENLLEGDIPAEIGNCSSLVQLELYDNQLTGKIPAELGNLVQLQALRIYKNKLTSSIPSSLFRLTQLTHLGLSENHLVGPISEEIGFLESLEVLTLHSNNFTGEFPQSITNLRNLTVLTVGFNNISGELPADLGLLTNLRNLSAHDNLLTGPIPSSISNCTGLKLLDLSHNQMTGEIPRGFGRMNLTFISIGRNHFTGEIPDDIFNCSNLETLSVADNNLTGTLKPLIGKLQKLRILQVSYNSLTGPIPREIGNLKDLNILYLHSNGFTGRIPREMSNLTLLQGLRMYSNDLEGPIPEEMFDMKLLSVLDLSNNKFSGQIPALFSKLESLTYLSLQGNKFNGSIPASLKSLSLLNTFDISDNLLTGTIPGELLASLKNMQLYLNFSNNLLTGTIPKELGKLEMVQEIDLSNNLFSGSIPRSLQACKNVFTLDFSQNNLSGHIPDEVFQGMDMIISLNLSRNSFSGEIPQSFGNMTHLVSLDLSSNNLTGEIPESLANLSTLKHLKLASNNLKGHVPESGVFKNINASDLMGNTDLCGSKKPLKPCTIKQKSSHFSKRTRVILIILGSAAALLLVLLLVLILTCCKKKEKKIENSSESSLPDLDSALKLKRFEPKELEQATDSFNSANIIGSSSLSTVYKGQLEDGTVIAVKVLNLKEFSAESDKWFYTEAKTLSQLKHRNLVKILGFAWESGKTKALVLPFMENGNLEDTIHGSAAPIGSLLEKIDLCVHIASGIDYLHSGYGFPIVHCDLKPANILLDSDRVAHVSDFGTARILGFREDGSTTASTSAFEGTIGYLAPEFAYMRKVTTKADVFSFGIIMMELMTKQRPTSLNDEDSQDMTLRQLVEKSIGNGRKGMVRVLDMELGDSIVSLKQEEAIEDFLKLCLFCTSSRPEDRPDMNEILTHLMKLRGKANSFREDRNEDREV
UniProt Q9LSR8, residues 22-766: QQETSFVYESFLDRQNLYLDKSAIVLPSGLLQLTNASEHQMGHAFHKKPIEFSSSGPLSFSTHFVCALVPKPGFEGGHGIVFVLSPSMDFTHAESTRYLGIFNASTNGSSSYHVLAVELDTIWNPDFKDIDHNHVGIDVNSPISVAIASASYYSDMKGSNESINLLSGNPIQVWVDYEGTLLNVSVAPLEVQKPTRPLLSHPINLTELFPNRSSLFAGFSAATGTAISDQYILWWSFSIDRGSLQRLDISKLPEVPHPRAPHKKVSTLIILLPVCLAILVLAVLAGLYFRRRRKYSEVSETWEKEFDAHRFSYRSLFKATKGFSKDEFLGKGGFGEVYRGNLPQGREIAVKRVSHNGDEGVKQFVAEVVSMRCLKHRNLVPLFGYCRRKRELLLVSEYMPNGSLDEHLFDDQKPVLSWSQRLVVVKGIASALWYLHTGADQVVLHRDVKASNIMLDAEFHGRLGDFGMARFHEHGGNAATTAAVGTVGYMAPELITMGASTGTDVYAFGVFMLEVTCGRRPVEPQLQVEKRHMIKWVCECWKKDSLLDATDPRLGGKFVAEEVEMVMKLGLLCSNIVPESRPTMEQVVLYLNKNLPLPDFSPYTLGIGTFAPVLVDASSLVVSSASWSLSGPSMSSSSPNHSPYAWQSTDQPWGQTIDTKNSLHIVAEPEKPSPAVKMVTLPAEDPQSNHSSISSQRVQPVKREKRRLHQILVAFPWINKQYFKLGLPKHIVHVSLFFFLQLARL

For the assay, the target named is T1, FLOT1 (split-luciferase fusion, LCI) (Arabidopsis thaliana) (UniProt Q501E6).
T1 sequence: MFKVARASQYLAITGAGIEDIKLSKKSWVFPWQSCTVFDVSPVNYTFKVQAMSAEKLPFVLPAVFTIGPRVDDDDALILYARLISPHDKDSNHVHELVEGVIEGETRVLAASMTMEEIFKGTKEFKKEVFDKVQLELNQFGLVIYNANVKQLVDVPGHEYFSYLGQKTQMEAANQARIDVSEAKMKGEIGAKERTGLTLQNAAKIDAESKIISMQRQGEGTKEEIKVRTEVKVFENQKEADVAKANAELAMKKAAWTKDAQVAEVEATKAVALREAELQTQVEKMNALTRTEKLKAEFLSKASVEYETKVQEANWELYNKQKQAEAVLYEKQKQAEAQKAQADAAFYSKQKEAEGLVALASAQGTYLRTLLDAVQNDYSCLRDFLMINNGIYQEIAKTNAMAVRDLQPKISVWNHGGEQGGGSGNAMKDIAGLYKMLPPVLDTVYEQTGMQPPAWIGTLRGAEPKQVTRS
The experiment in a line: split reporter.

These are yes or no findings as the source states them, for the method shown. In cells and extracts the contact can be indirect. Some binding calls cover weakened binding; strength is not graded here. Sequences can lack the tags named with a protein.

Turning to “FLS2 (split-luciferase fusion, LCI) (from UniProt Q9FL28 24-1173) (receptor)”, the binding entry was “binds”.
Consider “P2K1 (split-luciferase fusion, LCI) (from UniProt Q9LSR8 22-766) (receptor)”, for which the binding result is listed as “binds”.
